Reference: patent US10202584B2, “Red-shifted luciferase-luciferin pairs for enhanced bioluminescence” (The Regents of the University of California, priority 2016, dated 2019)

Tested on: purified luciferases
Experiment: Bioluminescence emission spectra of purified luciferases with luciferin substrates
Type: biochemical
Settings: assayed with NanoLuc

Row | SMILES | red-shift from furimazine [nm]
1 | O=c1c(Cc2ccccc2)nc2c(-c3ccccc3)[nH]c(-c3ccccc3)cn1-2 [DTZ, diphenylterazine] | 44
2 | O=c1c(Cc2ccccc2)nc2c([Se]c3ccccc3)[nH]c(-c3ccccc3)cn1-2 [STZ, 2-benzyl-6-phenyl-8-(phenylselanyl)imidazo[1,2-a]pyrazin-3(7H)-one] | 71
